This note sets out measurements from PMC10986105.

Sequences of proteins named here, by UniProt entry; tags and fusion partners are left off.
UniProt Q7L0Q8: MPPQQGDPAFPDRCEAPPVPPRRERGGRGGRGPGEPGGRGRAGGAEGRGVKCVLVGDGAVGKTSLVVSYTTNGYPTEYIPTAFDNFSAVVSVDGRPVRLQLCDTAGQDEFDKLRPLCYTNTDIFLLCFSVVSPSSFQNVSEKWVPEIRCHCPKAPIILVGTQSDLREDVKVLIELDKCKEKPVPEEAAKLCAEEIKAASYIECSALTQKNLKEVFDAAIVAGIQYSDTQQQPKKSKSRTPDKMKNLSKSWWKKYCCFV

Assay [1] concerns the target T1, endogenous AnxA6 (annexin A6) (human (endogenous in HepG2)) (UniProt P08133).
T1 sequence: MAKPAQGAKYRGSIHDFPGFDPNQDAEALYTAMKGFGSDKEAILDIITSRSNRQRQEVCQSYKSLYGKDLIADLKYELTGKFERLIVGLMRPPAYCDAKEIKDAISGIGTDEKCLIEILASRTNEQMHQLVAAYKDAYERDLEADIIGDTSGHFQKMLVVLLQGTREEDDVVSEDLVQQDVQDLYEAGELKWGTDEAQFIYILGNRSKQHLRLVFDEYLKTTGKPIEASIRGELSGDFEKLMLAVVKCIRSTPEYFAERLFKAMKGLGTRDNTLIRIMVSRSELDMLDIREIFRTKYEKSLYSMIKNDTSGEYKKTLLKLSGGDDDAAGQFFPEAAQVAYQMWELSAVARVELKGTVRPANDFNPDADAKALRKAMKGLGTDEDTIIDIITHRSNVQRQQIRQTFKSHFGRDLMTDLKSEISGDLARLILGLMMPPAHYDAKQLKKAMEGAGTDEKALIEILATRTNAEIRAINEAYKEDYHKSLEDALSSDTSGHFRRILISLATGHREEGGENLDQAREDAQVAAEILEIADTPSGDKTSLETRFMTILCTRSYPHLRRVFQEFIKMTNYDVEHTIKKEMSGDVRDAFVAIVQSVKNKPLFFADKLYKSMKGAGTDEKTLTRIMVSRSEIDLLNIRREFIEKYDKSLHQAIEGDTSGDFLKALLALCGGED
Kind of assay: co-IP; lysate of untransfected HepG2 cells (also TPA-induced HepG2 cells); IP of endogenous AnxA6 with antibody on protein A beads overnight at 4 °C, normal rabbit IgG as control; immunoblot with RHOU antibody. On the technique in general: Immunoblotting shows a protein as a band on a membrane.

In assay [2] the target is T2, Flag-tagging AnxA6 (annexin A6 from plasmid pTango-4*Flag-AnxA6) (UniProt P08133).
T2 sequence: T1 sequence
Kind of assay: co-IP; HepG2 cells transfected with pFlag-AnxA6 for 48 h; IP of the lysate to capture AnxA6 (antibody not named), immunoblot with RHOU antibody.

Assay [3] addresses T2, Flag-tagging AnxA6 (annexin A6 from plasmid pTango-4*Flag-AnxA6). Nature of the assay: co-IP; anti-Flag M2 affinity gel on lysate of transfected HepG2 cells (pFlag-AnxA6 or pFlag-AnxA6^K579R with pEGFP-RHOU, in Fig. 6C also pHis-SUMO1; for SENP1 pFlag-AnxA6 with or without pFlag-SENP1), 48 h after transfection; western blot of the precipitate.

These are yes or no findings as the source states them, for the method shown. Binding seen in cells or lysates may run through a third protein. Some entries that bind do so weakly or less than the wild type. For part of these data: Sequences can lack the tags named with a protein.

“endogenous RHOU protein (29 KDa) (from UniProt Q7L0Q8 1-258)”: the binding entry in assay [1] and in assay [2] was “binds” throughout. With “EGFP-tagging RHOU (Ras homolog family member U from plasmid pEGFP-RHOU) (from UniProt Q7L0Q8 1-258)”, the binding result in assay [3] is on record as “binds”.
